From publication PMC5667929
Results are given in words; binding and its absence hold for the method and conditions named. Binding seen in cells or lysates may run through a third protein. Some results given as binding are weak or reduced against the parent protein; the word gives no strength.

By UniProt entry, the sequences of proteins in these tests, tags left out. Residues count along the entry.
UniProt P29555, residues 261-590: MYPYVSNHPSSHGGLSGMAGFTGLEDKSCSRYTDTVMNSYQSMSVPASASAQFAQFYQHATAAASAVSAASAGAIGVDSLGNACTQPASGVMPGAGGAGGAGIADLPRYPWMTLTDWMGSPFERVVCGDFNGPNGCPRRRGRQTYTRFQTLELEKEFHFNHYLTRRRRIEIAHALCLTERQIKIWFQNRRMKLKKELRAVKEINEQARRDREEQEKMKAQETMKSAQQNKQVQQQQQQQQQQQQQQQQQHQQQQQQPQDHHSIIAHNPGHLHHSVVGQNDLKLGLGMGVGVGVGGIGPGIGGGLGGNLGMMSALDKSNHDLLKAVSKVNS
UniProt P13002, residues 551-1333: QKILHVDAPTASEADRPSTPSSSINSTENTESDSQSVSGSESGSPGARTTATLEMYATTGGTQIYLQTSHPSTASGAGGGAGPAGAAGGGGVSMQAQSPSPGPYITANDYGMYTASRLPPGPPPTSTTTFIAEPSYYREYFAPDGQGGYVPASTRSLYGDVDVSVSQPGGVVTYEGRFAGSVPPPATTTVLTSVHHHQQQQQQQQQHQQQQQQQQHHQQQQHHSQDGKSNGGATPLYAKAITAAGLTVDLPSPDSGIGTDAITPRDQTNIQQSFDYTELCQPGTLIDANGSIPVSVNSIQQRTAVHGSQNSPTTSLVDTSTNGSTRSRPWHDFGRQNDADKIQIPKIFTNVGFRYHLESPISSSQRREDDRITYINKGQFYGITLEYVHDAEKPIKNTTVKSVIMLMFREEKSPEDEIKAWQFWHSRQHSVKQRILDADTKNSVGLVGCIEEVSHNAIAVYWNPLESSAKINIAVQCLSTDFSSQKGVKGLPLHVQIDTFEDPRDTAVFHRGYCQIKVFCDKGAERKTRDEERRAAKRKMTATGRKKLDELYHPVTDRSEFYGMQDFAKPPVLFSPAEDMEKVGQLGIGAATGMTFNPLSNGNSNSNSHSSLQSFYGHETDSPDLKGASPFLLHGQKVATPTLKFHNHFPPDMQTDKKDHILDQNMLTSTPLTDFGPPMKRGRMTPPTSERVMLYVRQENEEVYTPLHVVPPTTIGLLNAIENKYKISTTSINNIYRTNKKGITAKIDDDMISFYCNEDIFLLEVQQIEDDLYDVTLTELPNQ

Biological target: truncated GST tagged AbdA (261 to 590 aa) (Drosophila) (UniProt P29555)
Assay: pull-down; bead bound GST-AbdA or GST incubated with equal amount of His-Grh bacterial lysate for 12 hours at 4°C; SDS-PAGE, blot with anti-His; only the target purified

His tagged Grh (551-1333 aa) (from UniProt P13002 551-1333) (domain or fragment)
binding: binds
